We go through four substances from publication PMC10670996.

Chains of the proteins cited; added tags and fusions are not shown. Lines headed by an entry give the natural chain unless they say otherwise; changes in a name come on top.
UniProt P06730: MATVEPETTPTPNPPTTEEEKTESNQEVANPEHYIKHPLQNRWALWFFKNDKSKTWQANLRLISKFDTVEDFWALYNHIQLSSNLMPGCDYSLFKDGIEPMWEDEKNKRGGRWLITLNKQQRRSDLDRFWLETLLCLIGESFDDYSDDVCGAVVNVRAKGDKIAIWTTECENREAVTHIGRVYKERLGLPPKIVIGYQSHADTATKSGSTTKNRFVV
UniProt P0DMB2: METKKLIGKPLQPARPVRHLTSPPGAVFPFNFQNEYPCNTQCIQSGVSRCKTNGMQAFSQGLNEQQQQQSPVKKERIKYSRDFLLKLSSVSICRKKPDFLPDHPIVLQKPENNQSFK

These are yes or no findings as the source states them, for the method shown. For some of these results: Binding seen in cells or lysates may run through a third protein.

One assay concerns the target His-eIF4E (UniProt P06730). Description: condition: 0.5 µg GST protein with 2.5 µg His-eIF4E in 50 µL; pull-down; cap-pulldown on m7GTP agarose of recombinant His-eIF4E (2.5 µg) with GST protein (0.5 µg) in 50 µL LCB Buffer, 1 h RT, then resin, GTP washes, m7GTP elution; blots anti-GST and anti-His (Figure S2); both purified.
Assay [1] has as its target Endogenous eIF4E (human (endogenous in HEK293T)) (UniProt P06730). Description: pull-down; m7GTP cap-affinity chromatography of lysates (NP40 lysis buffer) of transfected HEK293T; LCB washes, 500 µM GTP washes, eluted with 500 µM m7GTP; blots anti-DDDDK and anti-eIF4E.
In assay [2] the target is GST-C8ORF88(Δ6) (not stated (human or mouse cDNA cloned)) (UniProt P0DMB2). Description: condition: 0.5 µg His-eIF4E with 2.5 µg GST protein in 50 µL; pull-down; GST pulldown: 2.5 µg GST protein with 0.5 µg His-eIF4E or His-eIF4E(W73A) in 50 µL Binding Buffer (20 mM Tris pH 7.5, 100 mM KCl, 10% glycerol, 0.1% NP-40), 1 h room temperature; Glutathione Sepharose 1 h on ice; eluted with 10 mM reduced glutathione; blots anti-GST and anti-His; both purified.

Assay [3] addresses Flag-C8ORF88(Δ6) (HEK293T) (not stated (human or mouse cDNA cloned)) (UniProt P0DMB2). Description: co-IP; lysates (NP40 lysis buffer) of transfected HEK293T, 24 h post-transfection; anti-FLAG M2 magnetic beads 1 h on ice, 5 washes; blots anti-DDDDK and anti-eIF4E.

Turning to GST-C8ORF88(Δ6) (from UniProt P0DMB2), in the assay with His-eIF4E, the binding result is reported as “no binding”.

Consider “Flag-C8ORF88(Δ6) (HEK293T) (from UniProt P0DMB2)”, for which the binding result in assay [1] was “no binding”.

For His-eIF4E (from UniProt P06730 1-217), the binding result in assay [2] is listed as “no binding”.

Consider “Endogenous eIF4E (from UniProt P06730 1-217)”, for which, in assay [3], the binding result was “no binding”.
